# Measured values as given in patent US12686664B2, “SOCE inhibitors and therapeutic uses thereof” (Institut National de la Santé et de la Recherche Médicale …, priority 2020, dated 2026).
# The name of at least one read-out is uncertain. Marks after values point to notes of the source that are not given here.
# Test system: store-operated Ca^2+ entry in PLP-B lymphocytes
# Test: Store-operated Ca2+ entry after thapsigargin depletion of ER Ca2+ stores in PLP-B lymphocytes
# Type: cell-based
# Settings: 50 μM, % of inhibition (−) or activation, DMSO control 100%
# Protocol: The effects of the molecules developed were tested on PLP-B lymphocytes. Store-operated Ca^2+ entry was induced by depletion of Endoplasmic Reticulum Ca^2+ stores (ER Ca^2+ stores) with thapsigargin (Tg) in a Ca^2+-free medium and measured following the addition of 1.8 mM of CaCl2) in the extracellular medium. The results are compared to the results obtained for known SOCE inhibitors SKF-96365, GSK-7975A, Synta 66.
smiles,measurement,value
COc1ccc(CCOc2ccc(CCn3ccc(C(F)(F)F)n3)cc2)cc1 [Compound 6βs],Effect on amplitude of SOCE Peak,−25.0* %
